{"source": "PubChem BioAssay AID504834", "about": "(National Center for Advancing Translational Sciences (NCATS), 2011)", "note": "Screen size: about 320,000 compounds; about 22,000 (6.9%) were called active. Inconclusive means that the source gave no clear call. Such entries were picked first, then a sample of the others. The call rests on the fitted dose curve; in most records, active means well fitted inhibition curve with a large enough effect; inconclusive means small, poorly fitted or top-dose-only effect, or another doubt; inactive means no such curve, though single readings can be large or run the other way. Potencies beside an inconclusive call are fits to weak or partial responses and may not hold up. On the % scale 0 is the no-effect control and ±100 the full control effect; potency means the concentration at half of the fitted maximal effect."}
{"assay": "Primary qHTS for delayed death inhibitors of the malarial parasite plastid, 96 hour incubation", "details": "P. falciparum luciferase reporter growth; series mostly up to 28.7 µM; activity change, negative = inhibition: at the top concentration", "outline": "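P. falciparum expressing integrated firefly luciferase grown in erythrocytes (2% hematocrit, 0.05% parasitemia final) with compounds for 96 hours at 37 C, 5% CO2. Growth inhibition read as loss of luminescence after adding luciferase detection reagent.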"}
{"smiles": "Cc1ccc(NC(=O)N(Cc2cc3cc(C)cc(C)c3[nH]c2=O)CC2COCCO2)cc1", "note": "(stereo not given)", "Potency": "inconclusive: 10.4 µM [inhibitor, partial curve]"}
{"smiles": "CCN(CC)C(=O)Oc1ccc(Br)cc1C(=O)Nc1ccc(F)c(Cl)c1", "Potency": "active: 11.7 µM"}
{"smiles": "COc1ccc(C)cc1N(CC(=O)NCCSCc1ccco1)S(=O)(=O)c1ccc(C)cc1", "activity change, negative = inhibition": "inactive: -24.4%"}
{"smiles": "Cc1cc(NC(=O)CCC(=O)N(c2ccccc2)C2(C(=O)NC3CCCCC3)CCCC2)no1", "activity change, negative = inhibition": "inactive: 162%"}
{"smiles": "CC(=O)c1c(C)[nH]c(C(=O)NCCC2=CCCCC2)c1C", "Potency": "inconclusive: 18.5 µM [inhibitor, single point]"}
{"smiles": "COc1ccc(-c2sc3cc(OC)c(OC)cc3c2C#CC(C)(C)O)cc1", "Potency": "inconclusive: 3.29 µM [inhibitor, single point]"}
{"smiles": "COc1ccc(NS(=O)(=O)c2ccc(NS(=O)(=O)c3ccc(SC)cc3)cc2)c(OC)c1", "activity change, negative = inhibition": "inactive: 22.7%"}
{"smiles": "CCOC(=O)c1cc(C#N)c(N2CCN(C(=O)c3cccc(C(F)(F)F)c3)CC2)nc1C(F)(F)F", "Potency": "inconclusive: 1.47 µM [inhibitor, full curve]"}
{"smiles": "CN(C)S(=O)(=O)n1cc(/C=C(\\NC(=O)c2ccccc2F)C(=O)N2CCCC2)c2ccccc21", "activity change, negative = inhibition": "inactive: -0.538%"}
{"smiles": "COc1ccccc1C(=O)NC1CC2CCC(C1)N2Cc1ccccc1", "note": "(stereo not given)", "Potency": "inconclusive: 18.5 µM [inhibitor, single point]"}
{"smiles": "CS(=O)(=O)c1cccc(-c2nnc(NC(=O)c3ccc(S(=O)(=O)N4CCCC4)cc3)o2)c1", "Potency": "active: 13.1 µM"}
{"smiles": "Cc1ccc2nc(NCCNC(=O)c3ccccc3)c(C#N)cc2c1", "Potency": "inconclusive: 18.5 µM [inhibitor, partial curve, poor fit]"}
{"smiles": "Cc1cc(C(=O)OCC(=O)NCCc2ccccc2)c2ccccc2n1", "Potency": "inconclusive: 11.7 µM [inhibitor, partial curve, poor fit]"}
{"smiles": "O=C(Cc1ccc(S(=O)(=O)N2CCCC2)s1)Nc1nc2c(s1)CCCC2", "activity change, negative = inhibition": "inactive: -1.2% [at 5.75 µM]"}
{"smiles": "Cc1ccc(C(=O)NC2=NCCS2)cc1Cl", "activity change, negative = inhibition": "inactive: 5.14%"}
{"smiles": "COc1ccccc1/C=C/C=N/n1c(C)nnc1C", "Potency": "inconclusive: 18.5 µM [inhibitor, single point]"}
{"smiles": "CC[C@@H](C)[C@H](CN[C@H](CNC)C(C)C)NC[C@@H](C)c1ccc(CC(C)C)cc1", "Potency": "inconclusive: 1.47 µM [inhibitor, full curve, poor fit]"}
{"smiles": "O=C(N/N=C/c1ccc2ncccc2c1)c1ccco1", "activity change, negative = inhibition": "inactive: 234%"}
{"smiles": "CC(C)(C)C(=O)O/N=C(\\N)Cc1ccc(-c2csnn2)cc1", "activity change, negative = inhibition": "inactive: 0%"}
{"smiles": "Cc1c(NC(=O)c2c(O)c3ccccc3n(C)c2=O)c(=O)n(-c2ccccc2)n1C", "Potency": "inconclusive: 10.4 µM [inhibitor, single point]"}
